Laboratory results as given in PubChem BioAssay AID493014 (National Center for Advancing Translational Sciences (NCATS), 2011).
The other results are listed elsewhere or left out. The main result of the screen is listed elsewhere. These columns were measured beside it and carry no call. Compounds called inactive in the main read-out are mostly missing here. Words in brackets tell the shape of the fitted curve; partial curves, single points and poor fits give uncertain potencies.

Assay: qHTS Assay to Find Inhibitors of Chronic Active B-Cell Receptor Signaling
Conditions: ABC-DLBCL IkBa-CBG/CBR reporter, luminescence ratio (green luciferase fused to IkBa over red control in TMD8 lymphoma cells), 4 h
In short: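 Compounds up to 46 uM were incubated four hours with TMD8 cells whose green CBG68 luciferase is fused to IkappaBalpha; red CBR luminescence normalised the signal, and concentration-effect curves were fitted to fusion, red and ratio data.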

[1] = measured here: CBR red luminescence, cell number
[2] = measured here: IkBa-CBG green luminescence

Row | Compound | AC50 [1] | AC50 [2]
1 | COc1ccc(/C=C(\C#N)C(=O)NCC(c2ccc(F)cc2)N2CCOCC2)cc1 (centres undefined) | 35.5 µM [falling, single point] | 
2 | CC(C)CC(=O)N/N=C/c1c(N)n(C)c(=O)n(C)c1=O | 15.8 µM [falling, partial curve, poor fit] | 
3 | Cc1ccc2nc(Cl)c(/C=N/Nc3ccc(C(=O)O)cc3)cc2c1 | 0.112 µM [falling, full curve] | 
4 | COc1ccc(-c2c(C#CC(C)(C)O)c3ccccc3n2C)cc1 | 0.00461 µM [falling, full curve, poor fit] | 
5 | CCOC(=O)Cc1csc(NC(=O)NC2(C(F)(F)F)Oc3ccc(Cl)cc3O2)n1 (centres undefined) | 1.3 µM [rising, partial curve, poor fit] | 
6 | O=C1CSC(c2cccnc2)N1c1ccc(F)cc1 (centres undefined) | 1.64 µM [falling, full curve, poor fit] | 
7 | O=C(c1cc2ccc3cccnc3c2[nH]1)N1CCN(c2cccc(Cl)c2)CC1 | 1.78 µM [rising, full curve, poor fit] | 
8 | Cc1cc(C)c2c(NC(=S)NC(=O)c3ccccc3)nn(C)c2n1 |  | 20 µM [falling, single point]
9 | O=C(CSc1ccc(Cl)cc1)N1CCN(c2c(Cl)cccc2[N+](=O)[O-])CC1 | 12.6 µM [falling, partial curve, poor fit] | 
10 | O=C(NC1CCCCC1)C(c1ccco1)N(C(=O)c1csnn1)c1ccc(Cl)cc1 (centres undefined) | 35.5 µM [falling, single point] | 
11 | COc1ccc(N/C=C\C(=O)c2ccc3ccccc3c2)cc1 | 0.316 µM [falling, full curve, poor fit] | 
12 | CCOc1ccc(Br)cc1S(=O)(=O)Nc1ccc(C(=O)OCC(=O)Nc2ccc(C#N)cc2)cc1 | 35.5 µM [falling, single point] | 
13 | COc1ccc(/C=N/NC(=O)c2cc(C)oc2C)cc1OC | 8.91 µM [falling, partial curve] | 
14 | Cc1ccc(-c2n[nH]c(=O)c3ccccc23)cc1S(=O)(=O)NCCO | 4.61 µM [falling, single point] | 
15 | Cc1ccc(C)c(NC(=O)Cc2coc3cc4c(cc23)CCC4)c1 | 2.31 µM [rising, partial curve, poor fit] | 
16 | COc1ccc(N2CCN(C(=O)c3oc4ccccc4c3C)CC2)cc1 | 0.891 µM [rising, full curve, poor fit] | 
17 | Cc1[nH]c2ccccc2c1/C=N/NC(=O)C1CC1(c1ccccc1)c1ccccc1 (centres undefined) |  | 29.1 µM [rising, partial curve, poor fit]
18 | O=C(Nc1ccc(Oc2ccc(Br)cc2)cc1)C1=CC=CN2CCS(=O)(=O)N=C12 | 10.3 µM [rising, partial curve, poor fit] | 
19 | CCOC(=O)CCCCCC(=O)Nc1ccc2c(c1)C(=O)N([C@H](C)CO)C[C@H](C)[C@@H](CN(C)C(=O)Nc1ccc(OC)cc1)O2 | 14.6 µM [rising, single point] | 
20 | CCCN1C(=O)/C(=C2/C=Cc3ccccc3N2CC)SC1=S | 17.8 µM [rising, partial curve, poor fit] | 
21 | CCN(c1ccccc1)S(=O)(=O)c1ccc(C(=O)NNC(=O)c2ccccc2F)cc1 | 29.1 µM [rising, single point] | 25.9 µM [falling, partial curve, poor fit]

Row | Compound | AC50 [1] | AC50 [2]
22 | CC1(C)CC(=O)c2sc(NC(=O)C3CC3)nc2C1 | 25.9 µM [falling, single point] | 
23 | O=C(/C=C/c1ccc(Cl)cc1Cl)Nc1cccc(S(=O)(=O)NC2=NCCCCC2)c1 | 20.6 µM [falling, single point] | 
24 | CC(C)Cc1cc(C(=O)Nc2ccc(F)cc2F)no1 | 9.2 µM [falling, partial curve] | 
25 | c1cc(-n2cnnn2)ccc1NC1=NCCC1 | 2.59 µM [falling, partial curve, poor fit] | 
26 | CCOC(=O)C(=Cc1cc(=O)c(OC)co1)C(=O)OCC | 11.6 µM [falling, partial curve] | 
27 | CN(C(=S)NC(=O)CCCOc1ccc(Cl)cc1Cl)c1ccccc1 | 18.4 µM [rising, single point] | 
28 | CC(C)(C)C(=O)Nc1cc(S(=O)(=O)Nc2ccc(Cl)cc2)ccc1Cl | 13 µM [falling, partial curve, poor fit] | 
29 | CC(=O)c1cccc(NC(=O)C=C(C)C)c1 | 16.4 µM [rising, partial curve, poor fit] | 
30 | COc1cccc(C(=O)CC(C#N)c2ccc(F)cc2)c1 (centres undefined) | 0.891 µM [rising, full curve] | 
31 | CCOc1c(Br)cc(/C=C2\C(=O)N(CCC#N)N=C2C)cc1OC |  | 18.4 µM [falling, single point]
32 | CCOC(=O)N1CCN(c2ccc([N+](=O)[O-])cc2)CC1 | 20.6 µM [rising, partial curve, poor fit] | 
33 | CC(C)Oc1cccc(C(=O)NC(=S)Nc2cccc(NC(=O)c3ccccc3Cl)c2)c1 | 2.59 µM [falling, partial curve, poor fit] | 
34 | O=C(Nc1nccs1)c1ccc(N2CCOCC2)c([N+](=O)[O-])c1 | 10 µM [falling, partial curve] | 
35 | CCCOc1ccc2[nH]c(C(=O)N/N=C/c3cc(OC)c(OC)c(OC)c3)cc2c1 | 22.4 µM [falling, partial curve, poor fit] | 
36 | COC(=O)C1=C(C)N(c2cc(C)cc(C)c2)/C(=C/c2ccc(O)cc2)C1=O | 4.47 µM [falling, full curve, poor fit] | 
37 | O=C(CSc1nnc(-c2ccccc2O)o1)Oc1ccc(OCc2ccccc2)cc1 | 3.98 µM [rising, full curve, poor fit] | 
38 | O=C(CCCN1C(=O)c2ccccc2C1=O)Oc1ccc(F)cc1 |  | 0.461 µM [rising, partial curve, poor fit]
39 | Clc1ccc(CSc2nnc3c(n2)[nH]c2ccccc23)cc1 | 1 µM [rising, full curve, poor fit] | 
40 | N#Cc1cccc(NC(=O)COc2ccc(-n3ccnc3)cc2)c1 | 25.1 µM [falling, partial curve, poor fit] | 
41 | O=C(c1ccccc1Nc1ccc(SC(F)F)cc1)N1CCCCCC1 | 5.62 µM [falling, single point] | 
42 | CC(=O)CC(C)(C)S(=O)(=O)c1ccc(Oc2ccc(S(=O)(=O)C(C)(C)CC(C)=O)cc2)cc1 | 32.6 µM [rising, single point] | 

Row | Compound | AC50 [1] | AC50 [2]
43 | O=C(COc1coc(CN2CCc3ccccc3C2)cc1=O)Nc1cccc(Cl)c1 | 29.1 µM [rising, single point] | 
44 | CCOC(=O)c1ccc2nc(NC(=O)c3cccs3)sc2c1 | 0.82 µM [falling, full curve] | 
45 | CCOC(=O)C1=CC[C@@H](c2cc3ccc(OC)cc3n2C)N(S(=O)(=O)c2ccc(C)cc2)[C@H]1C(=O)OCC | 16.4 µM [rising, partial curve, poor fit] | 
46 | CSc1ccccc1NC(=O)C(=O)c1c[nH]c2ccccc12 | 8.91 µM [falling, partial curve, poor fit] | 
47 | NNc1nc2sc3c(c2c(=O)n1-c1ccccc1)CCCC3 | 7.94 µM [falling, partial curve] | 
48 | Cn1ncc(C(N)=O)c1NC(=S)NC(=O)c1ccc(Br)o1 | 6.31 µM [rising, single point] | 
49 | CCN(CC)CCN(C(=O)c1ccc2ncsc2c1)c1nc2cc3c(cc2s1)OCO3 | 11.2 µM [falling, partial curve] | 
50 | O=C(Nc1sc2c(c1C(=O)O)CCCCC2)c1cccs1 | 8.91 µM [falling, partial curve] | 
51 | Cc1ccc(-c2nc(N/N=C/c3cccnc3)c3ccccc3n2)cc1 | 4.61 µM [falling, partial curve] | 
52 | Nc1ccc2nc(Cc3ccccc3)[nH]c2c1 | 35.5 µM [falling, single point] | 
53 | CN(C(=S)NC(=O)C1(C)CC1(Cl)Cl)c1ccccc1 (centres undefined) | 1.3 µM [falling, full curve] | 
54 | CN(CC(CC(=O)Nc1nncs1)c1ccccc1)S(=O)(=O)c1ccccc1 (centres undefined) | 8.2 µM [falling, partial curve] | 
55 | CCCCCCC(=O)N/N=C1\CCCc2ccccc21 | 1.64 µM [rising, full curve, poor fit] | 
56 | CSc1ccc(/C=N/NC(=O)c2cccc(O)c2)cc1 | 2.82 µM [falling, partial curve, poor fit] | 
57 | COc1ccc(C2(C)NC(=O)N(CC(=O)Nc3ccc4c(c3)OCO4)C2=O)cc1OC (centres undefined) | 35.5 µM [rising, single point] | 
58 | CCOc1cc(C(c2c(C)[nH][nH]c2=O)c2c(C)[nH][nH]c2=O)ccc1OS(=O)(=O)c1ccc(C)cc1 | 5.17 µM [rising, single point] | 6.51 µM [falling, partial curve, poor fit]
59 | Cc1cc(C)n(-c2nc3ccccc3nc2Nc2ccc(CC(=O)O)cc2)n1 | 8.2 µM [falling, partial curve, poor fit] | 
60 | COc1ccc(C(=O)Cn2c(C(=O)/C=C/c3ccccc3)nc3ccccc32)cc1 | 5.8 µM [falling, single point] | 
61 | COc1ccc(C(=O)/C=C/Nc2ccccn2)c(OC)c1 | 3.16 µM [falling, full curve] | 
62 | O=c1[nH]c(SCc2cccc(Cl)c2)nc2[nH]ncc12 | 5.01 µM [rising, partial curve, poor fit] | 

Look-ups from the list:
AC50 [1], `CCOC(=O)C(=Cc1cc(=O)c(OC)co1)C(=O)OCC` is entered as 11.6 µM [falling, partial curve]
AC50 [1], `CCOC(=O)Cc1csc(NC(=O)NC2(C(F)(F)F)Oc3ccc(Cl)cc3O2)n1` (centres undefined) is entered as 1.3 µM [rising, partial curve, poor fit]
